Assay results taken from ChEMBL document CHEMBL1949642 (Bioorg Med Chem Lett, 2012).

The chains behind the UniProt entries cited, without tags or fusion partners. Where a name states a change or a piece, a line headed by the entry shows the natural chain unless it says otherwise.
UniProt Q12809: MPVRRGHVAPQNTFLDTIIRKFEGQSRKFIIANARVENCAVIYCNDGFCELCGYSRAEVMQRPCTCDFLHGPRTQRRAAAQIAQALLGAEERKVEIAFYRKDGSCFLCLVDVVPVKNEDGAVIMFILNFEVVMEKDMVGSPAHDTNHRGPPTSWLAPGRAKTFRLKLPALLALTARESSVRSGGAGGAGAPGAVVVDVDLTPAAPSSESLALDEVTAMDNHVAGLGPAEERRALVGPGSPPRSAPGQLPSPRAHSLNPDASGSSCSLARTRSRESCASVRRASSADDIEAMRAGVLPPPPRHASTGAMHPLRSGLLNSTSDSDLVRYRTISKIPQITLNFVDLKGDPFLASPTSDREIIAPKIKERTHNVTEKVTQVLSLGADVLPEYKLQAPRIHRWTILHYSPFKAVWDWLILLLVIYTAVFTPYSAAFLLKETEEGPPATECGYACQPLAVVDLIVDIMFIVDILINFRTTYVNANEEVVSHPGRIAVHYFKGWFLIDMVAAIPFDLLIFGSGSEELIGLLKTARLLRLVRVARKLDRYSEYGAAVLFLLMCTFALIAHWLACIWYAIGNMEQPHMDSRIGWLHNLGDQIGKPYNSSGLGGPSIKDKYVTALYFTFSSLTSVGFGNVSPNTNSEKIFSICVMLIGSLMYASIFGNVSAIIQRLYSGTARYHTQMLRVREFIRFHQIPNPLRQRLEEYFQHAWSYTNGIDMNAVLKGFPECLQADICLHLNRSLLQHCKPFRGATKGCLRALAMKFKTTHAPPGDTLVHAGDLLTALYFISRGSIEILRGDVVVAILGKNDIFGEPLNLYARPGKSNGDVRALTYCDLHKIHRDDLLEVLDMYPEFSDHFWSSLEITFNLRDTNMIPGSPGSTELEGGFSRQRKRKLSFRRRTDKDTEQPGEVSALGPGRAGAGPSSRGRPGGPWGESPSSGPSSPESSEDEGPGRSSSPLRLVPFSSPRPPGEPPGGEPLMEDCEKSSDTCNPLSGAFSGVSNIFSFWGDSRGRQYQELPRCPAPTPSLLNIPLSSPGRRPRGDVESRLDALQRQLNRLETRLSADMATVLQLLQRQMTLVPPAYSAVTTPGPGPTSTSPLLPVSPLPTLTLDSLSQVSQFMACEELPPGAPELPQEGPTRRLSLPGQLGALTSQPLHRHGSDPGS

Molecular target: Voltage-gated inwardly rectifying potassium channel KCNH2 (Homo sapiens, UniProt Q12809)
Assay: Displacement of 3,7-Bis[2-(4-nitro[3,5-3H]phenyl)ethyl]-3,7-diazabicyclo[3.3.1]nonane from human ERG expressed in HEK cells after 3 hrs

Structure (SMILES): CCN(C(=O)Cc1ccc(S(C)(=O)=O)cc1)C1CCN(CC[C@@H](c2cccc(F)c2)C2CCN(S(C)(=O)=O)CC2)CC1
- IC50: 35 µM
